Results are given in words; binding and its absence hold for the method and conditions named. In cells and extracts the contact can be indirect. Some entries that bind do so weakly or less than the wild type.

The target of the assay is T1, p47 (endogenous) (human (endogenous in U2OS)) (UniProt Q9UNZ2).
T1 sequence: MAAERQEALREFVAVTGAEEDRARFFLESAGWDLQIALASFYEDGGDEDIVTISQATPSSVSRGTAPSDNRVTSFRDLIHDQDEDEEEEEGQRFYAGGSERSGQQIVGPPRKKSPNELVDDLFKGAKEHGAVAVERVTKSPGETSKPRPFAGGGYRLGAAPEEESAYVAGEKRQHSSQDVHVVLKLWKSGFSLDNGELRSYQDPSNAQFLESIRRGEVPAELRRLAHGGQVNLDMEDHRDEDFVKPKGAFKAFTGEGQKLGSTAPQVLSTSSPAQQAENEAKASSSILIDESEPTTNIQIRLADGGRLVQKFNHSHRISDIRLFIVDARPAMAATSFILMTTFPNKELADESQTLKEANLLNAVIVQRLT
Kind of assay: co-IP; co-IP of p47 from lysates of U2OS cells transfected with plasmids for HA-tagged antibody fragments; p47-containing complexes captured and blotted.

As for “p97 (endogenous) (from UniProt P55072 1-806)”, the binding result is given as “binds”.

The record behind these values is publication PMC9335864.
